Data from patent publication US11090319B2, “Therapeutic uses of pharmaceutical compositions comprising cyclic boronic acid ester derivatives” (Melinta Subsidiary Corp., priority 2010, dated 2021).
At least one read-out could not be matched to a standard name with certainty.

Assays:
EC1007 KPC-3 = format: cell-based, Escherichia coli
[1] = tested on: strains expressing class A ESBLs; format: cell-based
[2] = tested on: strains expressing class C and D enzymes; format: cell-based

Compound	AZT MPC4 KPC-3 EC1007 (EC1007 KPC-3)	AZT MPC4 CTX-M-14 KP1005 [1]	AZT MPC4 CTX-M-15 KP1009 [1]	AZT MPC4 SHV-5 ec308 [1]	AZT MPC4 SHV-12 KP1010 [1]	AZT MPC4 SHV-18 KP1012 [1]	AZT MPC4 TEM-10 EC1009 [1]	AZT MPC4 TEM-10 ec302 [1]	AZT MPC4 TEM-26 ec304 [1]	AZT MPC@4 CMY-6 EC1010 [2]	AZT MPC@4 ECL1002 [2]	AZT MPC@4 OXA-2, KPX1001 [2]	AZT MPC@4 OXA-10, qnrB4 KP1007 [2]	AZT MPC@4 PAM2035 [2]
CC(C)(O/N=C(\C(=O)N[C@H]1CC[C@@H](CC(=O)O)OB1O)c1csc(N)n1)C(=O)O [Compound 36, 2-((Z)-1-(2-aminothiazol-4-yl)-2-((3R,6S)-6-(carboxymethyl)-2-hydroxy-1,2-oxaborinan-3-ylamino)-2-oxoethylideneaminooxy)-2-methylpropanoic acid]	Z (key: X: MPC@4 of less than 5 μg/mL; Y: MPC@4 of 5 μg/mL to 20 μg/mL; Z: MPC@4 of greater than 20 μg/mL)	Z (key: X: MPC@4 of less than 5 μg/mL; Y: MPC@4 of 5 μg/mL to 20 μg/mL; Z: MPC@4 of greater than 20 μg/mL)	Z (key: X: MPC@4 of less than 5 μg/mL; Y: MPC@4 of 5 μg/mL to 20 μg/mL; Z: MPC@4 of greater than 20 μg/mL)	Z (key: X: MPC@4 of less than 5 μg/mL; Y: MPC@4 of 5 μg/mL to 20 μg/mL; Z: MPC@4 of greater than 20 μg/mL)	Y (key: X: MPC@4 of less than 5 μg/mL; Y: MPC@4 of 5 μg/mL to 20 μg/mL; Z: MPC@4 of greater than 20 μg/mL)	Y (key: X: MPC@4 of less than 5 μg/mL; Y: MPC@4 of 5 μg/mL to 20 μg/mL; Z: MPC@4 of greater than 20 μg/mL)	Z (key: X: MPC@4 of less than 5 μg/mL; Y: MPC@4 of 5 μg/mL to 20 μg/mL; Z: MPC@4 of greater than 20 μg/mL)	Z (key: X: MPC@4 of less than 5 μg/mL; Y: MPC@4 of 5 μg/mL to 20 μg/mL; Z: MPC@4 of greater than 20 μg/mL)	Y (key: X: MPC@4 of less than 5 μg/mL; Y: MPC@4 of 5 μg/mL to 20 μg/mL; Z: MPC@4 of greater than 20 μg/mL)	Z (key: X: MPC@4 of less than 5 μg/mL; Y: MPC@4 of 5 μg/mL to 20 μg/mL; Z: MPC@4 of greater than 20 μg/mL)	Z (key: X: MPC@4 of less than 5 μg/mL; Y: MPC@4 of 5 μg/mL to 20 μg/mL; Z: MPC@4 of greater than 20 μg/mL)	Z (key: X: MPC@4 of less than 5 μg/mL; Y: MPC@4 of 5 μg/mL to 20 μg/mL; Z: MPC@4 of greater than 20 μg/mL)	Y (key: X: MPC@4 of less than 5 μg/mL; Y: MPC@4 of 5 μg/mL to 20 μg/mL; Z: MPC@4 of greater than 20 μg/mL)	Z (key: X: MPC@4 of less than 5 μg/mL; Y: MPC@4 of 5 μg/mL to 20 μg/mL; Z: MPC@4 of greater than 20 μg/mL)
O=C(O)C[C@@H]1CC[C@H](NC(=O)CCc2ccccc2)B(O)O1 [Compound 38, 2-((3R,6S)-2-hydroxy-3-(3-phenylpropanamido)-1,2-oxaborinan-6-yl)acetic acid]	X (key: X: MPC@4 of less than 5 μg/mL; Y: MPC@4 of 5 μg/mL to 20 μg/mL; Z: MPC@4 of greater than 20 μg/mL)	Z (key: X: MPC@4 of less than 5 μg/mL; Y: MPC@4 of 5 μg/mL to 20 μg/mL; Z: MPC@4 of greater than 20 μg/mL)	Z (key: X: MPC@4 of less than 5 μg/mL; Y: MPC@4 of 5 μg/mL to 20 μg/mL; Z: MPC@4 of greater than 20 μg/mL)	Z (key: X: MPC@4 of less than 5 μg/mL; Y: MPC@4 of 5 μg/mL to 20 μg/mL; Z: MPC@4 of greater than 20 μg/mL)	Y (key: X: MPC@4 of less than 5 μg/mL; Y: MPC@4 of 5 μg/mL to 20 μg/mL; Z: MPC@4 of greater than 20 μg/mL)	Z (key: X: MPC@4 of less than 5 μg/mL; Y: MPC@4 of 5 μg/mL to 20 μg/mL; Z: MPC@4 of greater than 20 μg/mL)	Z (key: X: MPC@4 of less than 5 μg/mL; Y: MPC@4 of 5 μg/mL to 20 μg/mL; Z: MPC@4 of greater than 20 μg/mL)	Z (key: X: MPC@4 of less than 5 μg/mL; Y: MPC@4 of 5 μg/mL to 20 μg/mL; Z: MPC@4 of greater than 20 μg/mL)	Z (key: X: MPC@4 of less than 5 μg/mL; Y: MPC@4 of 5 μg/mL to 20 μg/mL; Z: MPC@4 of greater than 20 μg/mL)	Z (key: X: MPC@4 of less than 5 μg/mL; Y: MPC@4 of 5 μg/mL to 20 μg/mL; Z: MPC@4 of greater than 20 μg/mL)	Z (key: X: MPC@4 of less than 5 μg/mL; Y: MPC@4 of 5 μg/mL to 20 μg/mL; Z: MPC@4 of greater than 20 μg/mL)	Z (key: X: MPC@4 of less than 5 μg/mL; Y: MPC@4 of 5 μg/mL to 20 μg/mL; Z: MPC@4 of greater than 20 μg/mL)	Z (key: X: MPC@4 of less than 5 μg/mL; Y: MPC@4 of 5 μg/mL to 20 μg/mL; Z: MPC@4 of greater than 20 μg/mL)	Z (key: X: MPC@4 of less than 5 μg/mL; Y: MPC@4 of 5 μg/mL to 20 μg/mL; Z: MPC@4 of greater than 20 μg/mL)
Nc1nc(CC(=O)N[C@H]2CC[C@@H](CC(=O)O)OB2O)cs1 [Compound 39, 2-((3R,6S)-3-(2-(2-aminothiazol-4-yl)acetamido)-2-hydroxy-1,2-oxaborinan-6-yl)acetic acid]	X (key: X: MPC@4 of less than 5 μg/mL; Y: MPC@4 of 5 μg/mL to 20 μg/mL; Z: MPC@4 of greater than 20 μg/mL)	Z (key: X: MPC@4 of less than 5 μg/mL; Y: MPC@4 of 5 μg/mL to 20 μg/mL; Z: MPC@4 of greater than 20 μg/mL)	Z (key: X: MPC@4 of less than 5 μg/mL; Y: MPC@4 of 5 μg/mL to 20 μg/mL; Z: MPC@4 of greater than 20 μg/mL)	Z (key: X: MPC@4 of less than 5 μg/mL; Y: MPC@4 of 5 μg/mL to 20 μg/mL; Z: MPC@4 of greater than 20 μg/mL)	Z (key: X: MPC@4 of less than 5 μg/mL; Y: MPC@4 of 5 μg/mL to 20 μg/mL; Z: MPC@4 of greater than 20 μg/mL)	Y (key: X: MPC@4 of less than 5 μg/mL; Y: MPC@4 of 5 μg/mL to 20 μg/mL; Z: MPC@4 of greater than 20 μg/mL)	Z (key: X: MPC@4 of less than 5 μg/mL; Y: MPC@4 of 5 μg/mL to 20 μg/mL; Z: MPC@4 of greater than 20 μg/mL)	Z (key: X: MPC@4 of less than 5 μg/mL; Y: MPC@4 of 5 μg/mL to 20 μg/mL; Z: MPC@4 of greater than 20 μg/mL)	Y (key: X: MPC@4 of less than 5 μg/mL; Y: MPC@4 of 5 μg/mL to 20 μg/mL; Z: MPC@4 of greater than 20 μg/mL)	Z (key: X: MPC@4 of less than 5 μg/mL; Y: MPC@4 of 5 μg/mL to 20 μg/mL; Z: MPC@4 of greater than 20 μg/mL)	Z (key: X: MPC@4 of less than 5 μg/mL; Y: MPC@4 of 5 μg/mL to 20 μg/mL; Z: MPC@4 of greater than 20 μg/mL)	Z (key: X: MPC@4 of less than 5 μg/mL; Y: MPC@4 of 5 μg/mL to 20 μg/mL; Z: MPC@4 of greater than 20 μg/mL)	Z (key: X: MPC@4 of less than 5 μg/mL; Y: MPC@4 of 5 μg/mL to 20 μg/mL; Z: MPC@4 of greater than 20 μg/mL)	Z (key: X: MPC@4 of less than 5 μg/mL; Y: MPC@4 of 5 μg/mL to 20 μg/mL; Z: MPC@4 of greater than 20 μg/mL)
